Assay results from paper doi:10.1101/804138.
For at least one entry, the source does not settle the construct or the ends of the probe. At least one verdict was read from the data and is not stated in words by the source.

Test system: GapR1-89
Assay: EMSA
Conditions: 10 uM protein, 1 uM DNA

## CGCGCGCGCGCG (double strand) [(dCG)6 12-mer]
  binding result: binds
